Here are results for one substance from publication PMC11371196.

Amino acid sequences for entries named in this document (tags omitted).
UniProt Q9FX32: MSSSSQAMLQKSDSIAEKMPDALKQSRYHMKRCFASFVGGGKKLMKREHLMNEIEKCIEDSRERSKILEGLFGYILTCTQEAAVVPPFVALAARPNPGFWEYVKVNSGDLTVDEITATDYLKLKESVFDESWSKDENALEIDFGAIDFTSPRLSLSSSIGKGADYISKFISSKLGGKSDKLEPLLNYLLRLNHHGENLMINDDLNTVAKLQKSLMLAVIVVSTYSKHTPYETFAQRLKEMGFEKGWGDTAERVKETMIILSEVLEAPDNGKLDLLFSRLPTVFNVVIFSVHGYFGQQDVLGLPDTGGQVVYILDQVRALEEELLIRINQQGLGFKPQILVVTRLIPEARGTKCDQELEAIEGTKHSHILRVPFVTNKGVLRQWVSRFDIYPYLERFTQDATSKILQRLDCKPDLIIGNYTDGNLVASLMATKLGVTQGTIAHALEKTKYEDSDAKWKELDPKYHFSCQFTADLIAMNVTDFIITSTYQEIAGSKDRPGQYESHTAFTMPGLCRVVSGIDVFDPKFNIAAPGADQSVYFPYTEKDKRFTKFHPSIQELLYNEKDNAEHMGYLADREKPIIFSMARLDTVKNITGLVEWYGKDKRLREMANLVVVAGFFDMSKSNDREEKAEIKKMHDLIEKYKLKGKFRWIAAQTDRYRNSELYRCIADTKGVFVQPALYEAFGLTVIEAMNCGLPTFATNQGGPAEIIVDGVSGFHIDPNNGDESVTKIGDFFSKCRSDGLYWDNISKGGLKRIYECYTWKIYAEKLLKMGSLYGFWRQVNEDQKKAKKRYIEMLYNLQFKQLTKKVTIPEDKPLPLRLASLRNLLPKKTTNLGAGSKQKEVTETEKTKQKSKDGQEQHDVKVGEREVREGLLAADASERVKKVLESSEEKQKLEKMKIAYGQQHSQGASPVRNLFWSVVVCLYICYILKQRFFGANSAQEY

Test in all cases: co-IP; transient co-expression in N. benthamiana, 2 d after infiltration; lysis and washes in RIPA buffer; GFP-Trap_A at 4 °C for 1 h; immunoblot with Flag and GFP antibodies
For orientation: In western blotting, separated proteins are transferred to a membrane and probed.

For test [1], the target named is T1, PDLP7-YFP (Arabidopsis thaliana) (UniProt Q0WPN8).
T1 sequence: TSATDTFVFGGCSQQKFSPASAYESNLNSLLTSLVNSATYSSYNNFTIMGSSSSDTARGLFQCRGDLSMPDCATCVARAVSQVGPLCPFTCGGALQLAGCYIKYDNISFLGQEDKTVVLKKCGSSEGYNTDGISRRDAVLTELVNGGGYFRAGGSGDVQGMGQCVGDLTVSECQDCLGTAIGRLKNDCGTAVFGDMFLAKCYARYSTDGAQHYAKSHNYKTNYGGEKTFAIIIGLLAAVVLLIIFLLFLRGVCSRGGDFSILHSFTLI

Test [2] addresses T2, PDLP6-YFP (Arabidopsis thaliana) (UniProt Q9ZU94).
T2 sequence: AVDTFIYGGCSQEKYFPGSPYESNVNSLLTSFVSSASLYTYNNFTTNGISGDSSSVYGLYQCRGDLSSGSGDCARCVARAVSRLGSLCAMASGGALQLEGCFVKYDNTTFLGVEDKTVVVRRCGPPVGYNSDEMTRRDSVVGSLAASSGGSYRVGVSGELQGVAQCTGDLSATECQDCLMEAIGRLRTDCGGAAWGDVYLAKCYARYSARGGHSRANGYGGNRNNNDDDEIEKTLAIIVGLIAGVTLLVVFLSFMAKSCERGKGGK

In test [3] the target is T3, PDLP5-YFP (Arabidopsis thaliana) (UniProt Q8GUJ2).
T3 sequence: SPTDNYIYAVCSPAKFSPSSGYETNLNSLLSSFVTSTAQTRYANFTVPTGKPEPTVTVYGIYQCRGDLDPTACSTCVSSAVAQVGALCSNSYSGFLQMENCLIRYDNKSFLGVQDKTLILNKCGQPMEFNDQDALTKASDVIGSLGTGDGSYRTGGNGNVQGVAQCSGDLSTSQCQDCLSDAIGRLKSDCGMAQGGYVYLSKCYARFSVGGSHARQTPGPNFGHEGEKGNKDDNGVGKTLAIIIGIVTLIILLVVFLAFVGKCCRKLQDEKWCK

These are yes or no findings as the source states them, for the method shown. In cells and extracts the contact can be indirect. Some results given as binding are weak or reduced against the parent protein; the word gives no strength. Where a sequence is shown, tags or fusion partners need not be part of it.

With “SUS6-HF (from UniProt Q9FX32 1-942) (enzyme)”, the figures for the binding entry in test [1], in test [2] and in test [3] were “no binding”, “binds” and “binds”, respectively.
